Values quoted from earlier work as cited in patent US7517913B2, “Polyamine conjugates with acidic retinoids and preparation thereof” (priority 2002, dated 2009).
At least one compound was matched to its structure with a doubt left.

Test system: RNase P isolated from D. discoideum
Settings: literature reports; RNase P from D. discoideum and normal human epidermal keratinocytes; cited from earlier work

O=C1c2c(O)cccc2Cc2cccc(O)c21 [anthralin]
inhibition of ribonuclease P (RNase P): inhibit
